PubChem BioAssay AID1224831 – NIAID, 2016

Purpose: 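Genes that support or restrain LPS-induced TNF-alpha reporter activity in macrophage-like cells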 (follow-up of hits)
Cell system: human THP-1 B5 monocytic leukaemia cells carrying a TNF promoter luciferase reporter, made macrophage-like with PMA
Knock-down reagent: single siRNA against human genes, 50 nM
Timing: about 68 h of knock-down, then 4 h LPS
Conditions: LPS (Salmonella minnesota, TLR-grade) at 10 ng/ml for 4 h; PMA 5 ng/ml present during knock-down
Read-out: 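TNF promoter reporter read as dual luciferase ratio after 4 h LPS, normalised per plate to its median, given as replicate mean robust z-score per siRNA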
Reading the numbers: TNF reporter z-score: higher = stronger LPS-induced TNF reporter signal; z-score, median over gene's siRNAs: higher = stronger TNF reporter signal across the gene's siRNAs
Rule for the call: 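Active when the replicate mean z-score is about -1 or lower, or about 1.5 or higher; lowered and raised TNF reporter signal both count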
Calls: active = changed TNF reporter (either direction); inactive = little change
In all, the deposit lists about 3,500 reagents; this is an unselected part. Of all reagents, 731 (21%) are marked active. 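Active means either lowered or raised reporter signal; the gene-median score did not drive the per-siRNA calls.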 Unmarked entries are inactive. Reagents against one gene are numbered here.

With knock-down of ATP6V1B2 (GeneID 526) #1 the results were TNF reporter z-score, replicate mean -0.21; z-score, median over gene's siRNAs -0.27.
After knock-down of ATP6V1B2 (GeneID 526) #2 the results were TNF reporter z-score, replicate mean 0.19; z-score, median over gene's siRNAs -0.27.
Silencing of ATP6V1B2 (GeneID 526) #3 gave: TNF reporter z-score, replicate mean -0.48; z-score, median over gene's siRNAs -0.27.
Depletion of ATP6V1B2 (GeneID 526) #4 came out at: TNF reporter z-score, replicate mean -0.76; z-score, median over gene's siRNAs -0.27.
After knock-down of ATP6V1B2 (GeneID 526) #5 the results were TNF reporter z-score, replicate mean 1.6 (active); z-score, median over gene's siRNAs -0.27.
ATP6V1B2 (GeneID 526) #6 gave TNF reporter z-score, replicate mean -0.33; z-score, median over gene's siRNAs -0.27.
With knock-down of POP4 (GeneID 10775) #1, the record shows TNF reporter z-score, replicate mean -0.63; z-score, median over gene's siRNAs 0.28.
POP4 (GeneID 10775) #2 gave TNF reporter z-score, replicate mean -0.03; z-score, median over gene's siRNAs 0.28.
Knock-down of POP4 (GeneID 10775) #3 gave: TNF reporter z-score, replicate mean -0.37; z-score, median over gene's siRNAs 0.28.
Against POP4 (GeneID 10775) #4 the deposit lists TNF reporter z-score, replicate mean 0.59; z-score, median over gene's siRNAs 0.28.
After knock-down of POP4 (GeneID 10775) #5, the record shows TNF reporter z-score, replicate mean 1.29; z-score, median over gene's siRNAs 0.28.
Knock-down of POP4 (GeneID 10775) #6 resulted in: TNF reporter z-score, replicate mean 1.01; z-score, median over gene's siRNAs 0.28.
MAGEL2 (GeneID 54551) #1 scored TNF reporter z-score, replicate mean 1.42; z-score, median over gene's siRNAs -0.52.
After knock-down of MAGEL2 (GeneID 54551) #2, the record shows TNF reporter z-score, replicate mean -2.21 (active); z-score, median over gene's siRNAs -0.52.
For MAGEL2 (GeneID 54551) #3, the entry reads TNF reporter z-score, replicate mean -0.51; z-score, median over gene's siRNAs -0.52.
Against MAGEL2 (GeneID 54551) #4, the entry reads TNF reporter z-score, replicate mean -0.53; z-score, median over gene's siRNAs -0.52.
After knock-down of MAGEL2 (GeneID 54551) #5, the record shows TNF reporter z-score, replicate mean -0.54; z-score, median over gene's siRNAs -0.52.
Silencing of MAGEL2 (GeneID 54551) #6 resulted in: TNF reporter z-score, replicate mean 0.51; z-score, median over gene's siRNAs -0.52.
With knock-down of SCRG1 (GeneID 11341) #1 the results were TNF reporter z-score, replicate mean 1.4; z-score, median over gene's siRNAs 0.36.
Knock-down of SCRG1 (GeneID 11341) #2 came out at: TNF reporter z-score, replicate mean 0.96; z-score, median over gene's siRNAs 0.36.
For SCRG1 (GeneID 11341) #3 the deposit lists TNF reporter z-score, replicate mean -0.14; z-score, median over gene's siRNAs 0.36.
SCRG1 (GeneID 11341) #4 showed TNF reporter z-score, replicate mean -0.16; z-score, median over gene's siRNAs 0.36.
For SCRG1 (GeneID 11341) #5 the deposit lists TNF reporter z-score, replicate mean 0.67; z-score, median over gene's siRNAs 0.36.
After knock-down of SCRG1 (GeneID 11341) #6 the results were TNF reporter z-score, replicate mean 0.05; z-score, median over gene's siRNAs 0.36.
LCK (GeneID 3932) #1 gave TNF reporter z-score, replicate mean -0.12; z-score, median over gene's siRNAs 0.105.
LCK (GeneID 3932) #2 showed TNF reporter z-score, replicate mean 0.68; z-score, median over gene's siRNAs 0.105.
For LCK (GeneID 3932) #3 the deposit lists TNF reporter z-score, replicate mean -0.05; z-score, median over gene's siRNAs 0.105.
LCK (GeneID 3932) #4 showed TNF reporter z-score, replicate mean 0.26; z-score, median over gene's siRNAs 0.105.
For LCK (GeneID 3932) #5, the entry reads TNF reporter z-score, replicate mean 1.15; z-score, median over gene's siRNAs 0.105.
Against LCK (GeneID 3932) #6, the values are TNF reporter z-score, replicate mean -1.55 (active); z-score, median over gene's siRNAs 0.105.
For GRIPAP1 (GeneID 56850) #1, the entry reads TNF reporter z-score, replicate mean 2 (active); z-score, median over gene's siRNAs 0.51.
Knock-down of GRIPAP1 (GeneID 56850) #2 gave: TNF reporter z-score, replicate mean 0.44; z-score, median over gene's siRNAs 0.51.
After knock-down of GRIPAP1 (GeneID 56850) #3, the screen gave TNF reporter z-score, replicate mean 0.35; z-score, median over gene's siRNAs 0.51.
After knock-down of GRIPAP1 (GeneID 56850) #4, the record shows TNF reporter z-score, replicate mean 2.91 (active); z-score, median over gene's siRNAs 0.51.
After knock-down of GRIPAP1 (GeneID 56850) #5 the results were TNF reporter z-score, replicate mean -0.09; z-score, median over gene's siRNAs 0.51.
After knock-down of GRIPAP1 (GeneID 56850) #6, the screen gave TNF reporter z-score, replicate mean 0.58; z-score, median over gene's siRNAs 0.51.
BMPR2 (GeneID 659) #1 scored TNF reporter z-score, replicate mean -0.79; z-score, median over gene's siRNAs -0.245.
Silencing of BMPR2 (GeneID 659) #2 resulted in: TNF reporter z-score, replicate mean -0.45; z-score, median over gene's siRNAs -0.245.
For BMPR2 (GeneID 659) #3, the values are TNF reporter z-score, replicate mean -1.08 (active); z-score, median over gene's siRNAs -0.245.
With knock-down of BMPR2 (GeneID 659) #4 the results were TNF reporter z-score, replicate mean 0.61; z-score, median over gene's siRNAs -0.245.
Silencing of BMPR2 (GeneID 659) #5 gave: TNF reporter z-score, replicate mean 0.48; z-score, median over gene's siRNAs -0.245.
BMPR2 (GeneID 659) #6 gave TNF reporter z-score, replicate mean -0.04; z-score, median over gene's siRNAs -0.245.

Looked up above:
POP4 (GeneID 10775) #3, z-score, median over gene's siRNAs → 0.28
Result of SCRG1 (GeneID 11341) #4 in “TNF reporter z-score, replicate mean”: -0.16
For “z-score, median over gene's siRNAs”, POP4 (GeneID 10775) #1 reads 0.28
Under “TNF reporter z-score, replicate mean”, GRIPAP1 (GeneID 56850) #4 has 2.91 (active)
LCK (GeneID 3932) #4, z-score, median over gene's siRNAs → 0.105
MAGEL2 (GeneID 54551) #5, TNF reporter z-score, replicate mean → -0.54
